The text below walks through data of patent US6365341B1, “Stabilization of highly sensitive nucleic acid stains in aqueous solutions” (priority 2000, dated 2002).

The series has as its system DNA. Put plainly: Quality of DNA resolution in fresh prestained agarose gels. The note with it: 1% agarose, 1xTAPS, 1xGelStar.

On to `[Na+].[OH-]` [Sodium hydroxide (NaOH), Sodium hydroxide], for which, for the setting “additive titrated the buffer to pH 8.2”, the Resolution when fresh result is given as “Fair”.
With `CCCCC[N+](CCCCC)(CCCCC)CCCCC.[OH-]` [TPAOH, Tetrapentylammonium hydroxide], the Resolution when fresh entry is recorded as “Fair” (additive 7.3 mM) and “Good” (additive 14.6 mM).
Take `CCCCCCCCCCCC[N+](C)(C)C.[Br-]` [Dodecyltrimethylammonium bromide]: under “additive 28 mM”, the Resolution when fresh result is listed as “Poor”.
On to `CCCCCCCCCCCCCCCC[N+](C)(C)C.[Br-]` [Hexadecyltrimethylammonium bromide], for which the Resolution when fresh entry (additive 2 mM) is “Poor”.
For the compound Tween-20, the Resolution when fresh result (additive 0.1% (v/v)) is given as “Fair”.
In the case of `CCCC[N+](CCCC)(CCCC)CCCC.[OH-]` [Tetrabutylammonium hydroxide (TBAOH), Tetrabutylammonium hydroxide], the Resolution when fresh entry (additive 14.6 mM) was “Fair”.
